Data: PubChem BioAssay AID587 (National Center for Advancing Translational Sciences (NCATS), 2007)
About 35 (0.06%) of roughly 59,000 compounds were called active. Inconclusive means that the source gave no clear call. Such entries were picked first, then a sample of the others. Cut-off read from the data, not from the text of the source: active = max dye-equivalent concentration above about 10 nM; inconclusive = between about 1.1 nM and that limit; inactive = weaker than that.

assay: qHTS Assay for Spectroscopic Profiling in Texas Red Spectral Region; settings: Compound fluorescence, Texas Red channel, 547/618 nm; stronger effect = higher value
How it was run: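 qHTS profiling of intrinsic compound fluorescence; 100 mM Tris pH 8.0; 15 min RT; ex 547 / em 618 nm; response expressed as Texas Red dye-equivalent concentration from six-point plate standard.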

Row | Compound | max dye-equivalent concentration
1 | CCn1cc(C(=O)N2CC(C)CC(C)C2)c(=O)c2cc(S(=O)(=O)N3CCOCC3)ccc21 (stereo not drawn) | inconclusive: 2.9 nM
2 | CCOC(=O)c1ccc(NC(=O)C2C3CCC(C3)C2C(=O)O)cc1 (stereo not drawn) | inconclusive: 1.2 nM
3 | O=C(c1ccco1)[C@@H]1[C@@H]2C(=O)N(c3ccc(F)cc3)C(=O)[C@@H]2C2c3ccccc3C=CN21 (stereo partly drawn) | inconclusive: 1.2 nM
4 | CC1(C)CC2CC(C)(CN2C(=O)COC(=O)Cn2[nH]c(=O)c3ccccc3c2=O)C1 (stereo not drawn) | inconclusive: 1.7 nM
5 | Cc1ccc(OCc2nnc(SCc3cc(=O)[nH]c4ccccc34)o2)cc1 | inconclusive: 1.3 nM
6 | CCCn1c(C(O)c2ccc3c(c2)OCO3)nc2ccccc21 (stereo not drawn) | inconclusive: 1.5 nM
7 | CC(C)=CCc1c2c(c3occ(-c4ccc(O)c(O)c4)c(=O)c3c1O)C=CC(C)(C)O2 | inconclusive: 1.3 nM
8 | O=C(Nc1ccc2c(c1)ncn2C1CCCCC1)c1ccco1 | inconclusive: 1.1 nM
9 | c1c2c(cc3sc(N4CCCCC4)nc13)OCO2 | inconclusive: 1.4 nM
10 | COc1ccc(Cc2nnc(SCC(=O)N3CCc4ccccc4C3)o2)cc1 | inconclusive: 2 nM
11 | CC(C)(C)NC(=O)Cn1ccc(=N)c2ccccc21 | inconclusive: 1.6 nM
12 | Cc1ccc(OCc2nnc(SCC(=O)Nc3ccc4c(c3)OCO4)n2C)cc1 | inconclusive: 1.5 nM
13 | O=c1[nH]c(=O)n(Cc2ccccc2)c2nc(-c3ccco3)cc(C(F)(F)F)c12 | inconclusive: 1.3 nM
14 | N#CCCn1c(=O)c(-c2cccs2)nc2cnc(Nc3ccccc3)nc21 | inactive
15 | CCOC(=O)N1CCC(NC(=O)c2cc(S(=O)(=O)N3CCOCC3)ccc2F)CC1 | inconclusive: 1.7 nM
16 | COc1ccc(C)cc1-n1nnnc1SCC(=O)c1cc(C)n(Cc2ccco2)c1C | inconclusive: 2.3 nM
17 | CCOC(=O)C1CCN(c2nc3ccccc3nc2C(C#N)C(=O)OC(C)COC)CC1 (stereo not drawn) | inactive
18 | COc1cccc(N2CCN(c3c4c(nc5ncnn35)CCC4)CC2)c1 | inconclusive: 1.6 nM
19 | COC(=O)c1ccc(CSc2nc3ccccc3c(=O)n2-c2cccc(OC)c2)o1 | inconclusive: 1.1 nM
20 | Cc1noc(C)c1CSc1nnc2sc3ccccc3n12 | inconclusive: 1.2 nM
21 | COc1ccccc1CN1CCC2(CC1)CCN(C(=O)c1ccncc1)CC2 | inactive

Filtered by structure: those above containing a cyano group (2)
Row | Compound | max dye-equivalent concentration
14 | N#CCCn1c(=O)c(-c2cccs2)nc2cnc(Nc3ccccc3)nc21 | inactive
17 | CCOC(=O)C1CCN(c2nc3ccccc3nc2C(C#N)C(=O)OC(C)COC)CC1 (stereo not drawn) | inactive

More results.

Row | Compound | max dye-equivalent concentration
22 | COc1ccc(-c2noc(C3CCCN(S(=O)(=O)c4ccc(C)c(Cl)c4)C3)n2)cc1OC (stereo not drawn) | inconclusive: 1.1 nM
23 | Cc1cccc(NC(=O)CSc2nnc(-c3ccccc3)n2N)c1C | inconclusive: 1.4 nM
24 | N=c1sc2ccccc2n1CCS (tested in a mixture with another compound) | inactive
25 | COCCn1c(=O)c(-c2ccc(Cl)cc2)nc2cnc(OC)nc21 | inactive
26 | Cc1nc(NC2=NCN(CC3CCCO3)CN2)nc2ccccc12 (stereo not drawn) | inconclusive: 1.6 nM
27 | Cc1cc(O)c(NC(=O)c2ccco2)cc1C | inconclusive: 1.4 nM
28 | Cc1cccc2cc(CN(CC3CCCO3)C(=O)c3ccncc3)c(=O)[nH]c12 (stereo not drawn) | inconclusive: 1.2 nM
29 | Cc1ccc(S(=O)(=O)N2CCOCC2)cc1C(=O)OCC(=O)N1CCc2ccccc2C1 | inconclusive: 1.2 nM
30 | COC(=O)c1[nH]c2ccccc2c1NC(=O)Oc1ccccc1 | inconclusive: 1.8 nM
31 | CC(=O)NCc1cccc(CNC(C)=O)n1 | inconclusive: 2.6 nM
32 | CC1(C)Oc2ccc(C(=O)NC3CCCC3)cc2N(CC(=O)NC2CCCCC2)C1=O | inconclusive: 1.4 nM
33 | C=CCOc1ccc(/C(O)=C2\C(=O)C(=O)N(CCCOC)C2c2ccncc2)cc1 (stereo not drawn) | inconclusive: 1.1 nM
34 | CC(C)(C)OC(=O)N1CC=C2C(C#N)=C(N)C(C#N)(C#N)C(c3cccs3)C2C1 (stereo not drawn) | inactive
35 | CCc1c(O)nc(N2CCN(Cc3ccccc3)CC2)[nH]c1=O | inconclusive: 1.3 nM
36 | COc1ccc(-n2c(C)cc(C(=O)CSc3nn4c(=O)c(C(C)(C)C)nnc4s3)c2C)cc1 | inconclusive: 1.1 nM
37 | CC(=O)Nc1ccc(C(=O)OCC(=O)NC(=O)NC2CCCCC2)cc1 | inconclusive: 2.3 nM
38 | COC(=O)/C=c1/sc2nc3ccccc3n2c1=O | inconclusive: 1.1 nM
39 | Cc1cccc(C)c1NC(=O)c1cc(S(=O)(=O)N2CCOCC2)ccc1F | inconclusive: 1.3 nM
40 | O=C(CSc1nnnn1C1CCCCC1)NCc1cccc(C(=O)O)c1 | inconclusive: 1.2 nM
41 | COc1ccc(CCN2CC(O)=C(c3nc4ccccc4c(=O)[nH]3)C2=N)cc1OC | inconclusive: 1.1 nM
42 | CCCNC(=O)c1[nH]c(C)c(C(C)=O)c1C | inconclusive: 1.9 nM

Row | Compound | max dye-equivalent concentration
43 | CCc1nc(Nc2ccc(N3CCN(C(C)=O)CC3)cc2)c2oc3ccccc3c2n1 | inconclusive: 1.2 nM
44 | CCN(CC)CCCC(C)NC1=NCCCCC1 (stereo not drawn) | inconclusive: 1.2 nM
45 | O=C(c1nc(-c2ccccc2)n(-c2ccccc2)n1)N1CCN(S(=O)(=O)c2ccccc2)CC1 | inconclusive: 1.3 nM
46 | O=C(NCc1ccccc1)c1cc(S(=O)(=O)N2CCC3(CC2)OCCO3)ccc1F | inconclusive: 1.1 nM
47 | O=C(O)C1C2C=CC(C2)C1C(=O)NCCc1ccccc1 (stereo not drawn) | inconclusive: 1.6 nM
48 | COc1ccc(C2=NOC(C(=O)NCC(C)C)C2)cc1 (stereo not drawn) | inconclusive: 1.6 nM
49 | Cc1ccccc1S(=O)(=O)Cc1ccc(C(=O)NCCCN2CCN(C)CC2)o1 | inconclusive: 2.2 nM
50 | CC1=C(C(=O)Nc2ccccc2)C(c2ccc(C)o2)n2ncnc2N1 (stereo not drawn) | inconclusive: 1.2 nM
51 | CCCn1c(C)cc(=O)c2cc(NC(=O)c3ccccn3)ccc21 | inconclusive: 1.5 nM
52 | O=C(O)CCc1ccc(-c2cccs2)n1Cc1ccco1 | inconclusive: 1.4 nM
53 | C[C@H]1C[C@@H]2[C@H]3CCC4=CC(=O)C=C[C@@]4(C)[C@@]3(Cl)[C@@H](O)C[C@]2(C)[C@]1(OC(=O)c1ccco1)C(=O)CCl | inconclusive: 1.1 nM
54 | CCOc1ccc(C)cc1S(=O)(=O)NC1CCCCC1 | inconclusive: 1.2 nM
55 | COc1ccc(Nc2nccc3c2nnn3C)cc1 | inconclusive: 1.4 nM
56 | O=C1CC(N2CCN(CCc3ccccn3)CC2)C(=O)N1c1ccc(Cl)cc1 (stereo not drawn) | inconclusive: 1.6 nM
57 | N#Cc1cn(-c2ccccc2)nc1-c1ccccc1 | inconclusive: 1.6 nM
58 | O=c1[nH]c(N2CCOCC2)nc2ncn(Cc3ccccc3)c12 | inconclusive: 1.2 nM
59 | Cc1cc(C)nc(SCc2nc3ccccc3n2C)n1 | inconclusive: 1.7 nM
60 | CCCn1c(SCC(=O)Nc2ccc3c(c2)OCCO3)nnc1-c1ccco1 | inconclusive: 1.1 nM
61 | COc1ccc2c(c1)c1nnc(SC)nc1n2C | inconclusive: 1.3 nM
62 | COCCn1c(NCc2ccc(C)cc2)nc2c1c(=O)[nH]c(=O)n2C | inconclusive: 2.4 nM
63 | CCCCOc1ccccc1NC(=O)c1ccc(=O)[nH]c1 | inconclusive: 2.5 nM

Row | Compound | max dye-equivalent concentration
64 | COc1ccc(NC(=O)N(CCCN(C)C)Cc2cc3cc(OC)ccc3[nH]c2=O)cc1 | inconclusive: 2.4 nM
65 | CC(C)(O)C#Cc1ccccc1C(=O)NC(CC(N)=O)C(=O)O (stereo not drawn) | inconclusive: 1.8 nM
66 | COc1ccc(Cl)cc1C(=O)NCCc1ccc(S(=O)(=O)NC(=O)NC2CCCCC2)cc1 | inconclusive: 1.2 nM
67 | CC(C)Nc1oc(Cc2cccc3ccccc23)nc1C#N | inconclusive: 1.6 nM
68 | O=C(Nc1cccc(Cl)c1)c1ccncc1 | inconclusive: 1.8 nM
69 | CCCc1nnc(NC(=O)c2cc(OC)cc(OC)c2)s1 | inconclusive: 3.2 nM
70 | CCC(c1nnnn1C1CCCC1)N(Cc1cccs1)Cc1cc2cccc(C)c2[nH]c1=O (stereo not drawn) | inconclusive: 2.3 nM
71 | Cc1ccc(S(=O)(=O)NC2=NCN(Cc3cccnc3)CN2)cc1 | inconclusive: 1.2 nM
72 | CCn1cc(Br)c(C(=O)N2CCN(c3ccccc3)CC2)n1 | inconclusive: 1.8 nM
73 | CCN(CC)S(=O)(=O)c1cccc(-c2nnc(SCCOc3ccccc3C)o2)c1 | inconclusive: 1.7 nM
74 | O=C(Nc1nc(-c2cc(Cl)sc2Cl)cs1)c1cccs1 | inconclusive: 1.5 nM
75 | COc1ccc2cnn(CCOc3ccccc3)c(=O)c2c1OC | inconclusive: 1.6 nM
76 | CCN(CC)S(=O)(=O)c1cccc(-c2nnc(C(=O)c3ccc(C(F)(F)F)cc3)o2)c1 | inconclusive: 2.2 nM
77 | Cc1ccc(-c2c3c(=O)n(C)c(=O)n(C)c3cn2N2CCOCC2)cc1 | inactive
78 | C=CCc1ccc(OCCCCCN2CCOCC2)c(OC)c1 | inconclusive: 1.1 nM
79 | CC(C)C[C@H]1C(=O)N2CCC[C@@H]2[C@]2(O)O[C@](NC(=O)[C@H]3C=C4c5cccc6[nH]c(Br)c(c56)C[C@H]4N(C)C3)(C(C)C)C(=O)N12 | inconclusive: 1.4 nM
80 | O=C(COc1ccc2ccccc2c1Br)N1CCN(c2ccccn2)CC1 | inconclusive: 1.6 nM
81 | CC(=O)c1cc2c(cc1NC(=O)CN1CCOCC1)OCO2 | inconclusive: 1.5 nM
82 | O=C(NC12CC3CC(CC(C3)C1)C2)c1ccccc1O | inconclusive: 1.5 nM
83 | CCOC(=O)c1cnc(-n2nc(C)cc2C)nc1Nc1ccc(N(C)C)cc1 | inconclusive: 1.1 nM
